Measurements as given in US20140178899A1.
No constants are given. Whether binding was seen depends on the method and setting. Binding seen in cells or lysates may run through a third protein. Some binding calls cover weakened binding; strength is not graded here. For some assays here: Tags and fused reporters may be left off the sequences shown.

Sequences of proteins named here, by UniProt entry; tags and fusion partners are left off. A change or cut given only in a name is not applied to a line headed by its entry.
UniProt P10415: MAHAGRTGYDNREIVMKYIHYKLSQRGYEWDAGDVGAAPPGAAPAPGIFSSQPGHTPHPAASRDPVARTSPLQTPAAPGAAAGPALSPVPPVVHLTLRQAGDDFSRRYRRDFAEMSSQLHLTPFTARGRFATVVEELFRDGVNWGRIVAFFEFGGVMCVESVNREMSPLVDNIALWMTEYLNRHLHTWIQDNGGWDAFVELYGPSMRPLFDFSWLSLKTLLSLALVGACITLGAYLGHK
UniProt Q07817: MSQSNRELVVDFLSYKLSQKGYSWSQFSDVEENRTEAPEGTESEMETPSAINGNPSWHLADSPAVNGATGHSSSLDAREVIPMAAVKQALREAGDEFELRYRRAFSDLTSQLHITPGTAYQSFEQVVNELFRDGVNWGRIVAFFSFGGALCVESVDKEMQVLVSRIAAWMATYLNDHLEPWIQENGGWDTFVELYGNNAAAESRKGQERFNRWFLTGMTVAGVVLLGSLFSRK
UniProt Q14457: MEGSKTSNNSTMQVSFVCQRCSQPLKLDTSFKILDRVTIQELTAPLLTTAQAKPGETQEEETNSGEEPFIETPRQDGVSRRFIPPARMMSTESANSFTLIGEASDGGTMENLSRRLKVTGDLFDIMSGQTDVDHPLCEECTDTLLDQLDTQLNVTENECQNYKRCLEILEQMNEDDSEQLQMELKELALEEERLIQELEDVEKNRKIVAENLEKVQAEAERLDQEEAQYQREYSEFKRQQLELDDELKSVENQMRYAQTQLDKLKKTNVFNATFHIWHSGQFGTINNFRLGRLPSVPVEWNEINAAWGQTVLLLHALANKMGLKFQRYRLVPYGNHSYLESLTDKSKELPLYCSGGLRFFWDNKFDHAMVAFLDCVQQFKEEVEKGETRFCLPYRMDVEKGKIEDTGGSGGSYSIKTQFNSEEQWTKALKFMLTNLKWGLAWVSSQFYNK

Assays:
[1] = target: endogenous Bcl-2 pulled down from cell extracts (COS7 or HEK293T) (UniProt P10415); test: GST pull-down from cell extract, Western blot
[2] = target: endogenous DAPk from HEK293T cell extracts (UniProt P53355); test: GST pull-down from cell extract, Western blot
[3] = target: Bcl-XL (over-expressed by transfection in HEK293 cells) (UniProt Q07817); test: co-immunoprecipitation from co-transfected HEK293 cells
[4] = target: Bcl-XL (over-expressed by transfection in HEK293 cells) (UniProt Q07817); test: anti-Flag co-immunoprecipitation from co-transfected HEK293 cells
[5] = target: T1, HA-tagged activated DAPk (ΔCaM DAPk), lacking its calmodulin (CaM)-regulatory domain (UniProt P53355); test: anti-Flag co-immunoprecipitation from HEK293 cells co-transfected with HA-ΔCaM DAPk
T1 sequence: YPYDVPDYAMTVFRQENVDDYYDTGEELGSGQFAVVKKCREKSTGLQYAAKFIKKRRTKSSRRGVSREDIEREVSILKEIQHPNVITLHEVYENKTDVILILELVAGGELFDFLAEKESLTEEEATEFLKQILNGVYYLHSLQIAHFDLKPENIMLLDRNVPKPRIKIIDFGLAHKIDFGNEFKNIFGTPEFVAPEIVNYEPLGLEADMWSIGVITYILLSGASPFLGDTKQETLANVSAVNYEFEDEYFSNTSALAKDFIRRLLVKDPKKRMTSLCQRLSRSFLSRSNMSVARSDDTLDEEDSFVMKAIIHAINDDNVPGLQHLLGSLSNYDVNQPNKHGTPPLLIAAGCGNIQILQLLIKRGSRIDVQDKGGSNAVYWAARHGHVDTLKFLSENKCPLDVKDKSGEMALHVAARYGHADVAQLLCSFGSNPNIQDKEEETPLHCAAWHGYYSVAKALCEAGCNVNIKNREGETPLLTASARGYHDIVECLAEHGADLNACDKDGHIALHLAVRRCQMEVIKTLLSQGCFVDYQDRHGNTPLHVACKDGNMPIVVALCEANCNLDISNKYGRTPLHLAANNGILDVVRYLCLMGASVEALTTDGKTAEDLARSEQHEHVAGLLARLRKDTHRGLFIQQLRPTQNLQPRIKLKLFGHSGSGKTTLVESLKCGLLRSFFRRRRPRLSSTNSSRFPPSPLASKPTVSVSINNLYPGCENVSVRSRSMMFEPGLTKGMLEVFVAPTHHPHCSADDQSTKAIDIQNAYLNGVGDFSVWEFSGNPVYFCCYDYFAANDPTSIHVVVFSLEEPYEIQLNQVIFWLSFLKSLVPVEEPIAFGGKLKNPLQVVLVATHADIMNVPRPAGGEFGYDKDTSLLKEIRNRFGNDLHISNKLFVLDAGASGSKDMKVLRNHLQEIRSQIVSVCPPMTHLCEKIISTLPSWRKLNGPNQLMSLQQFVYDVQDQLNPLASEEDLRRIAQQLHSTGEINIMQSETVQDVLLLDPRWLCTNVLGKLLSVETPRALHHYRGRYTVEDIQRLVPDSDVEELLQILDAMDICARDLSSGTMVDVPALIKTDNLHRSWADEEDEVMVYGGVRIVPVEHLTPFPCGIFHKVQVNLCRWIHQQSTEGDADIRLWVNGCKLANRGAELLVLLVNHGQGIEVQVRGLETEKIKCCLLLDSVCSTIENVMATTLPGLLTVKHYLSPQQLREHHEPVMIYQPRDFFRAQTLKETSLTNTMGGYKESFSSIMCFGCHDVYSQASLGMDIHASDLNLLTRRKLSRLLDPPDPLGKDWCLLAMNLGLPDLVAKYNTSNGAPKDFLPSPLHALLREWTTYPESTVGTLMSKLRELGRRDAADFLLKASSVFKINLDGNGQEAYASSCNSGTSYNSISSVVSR

[6] = target: endogenous DAPk from HEK293T cell extracts (UniProt P53355); test: co-immunoprecipitation from HEK293T cells
[7] = target: endogenous DAPk from HEK293T cell extracts (UniProt P53355); test: anti-Flag co-immunoprecipitation from HEK293T cells
[8] = target: Bcl-2 (co-transfected in HEK293T cells) (UniProt P10415); test: co-immunoprecipitation from co-transfected HEK293T cells
HA-tagged DAPk = HA-tagged DAPk (UniProt P53355); test: anti-Flag co-immunoprecipitation from co-transfected HEK293 cells
[9] = target: Bcl-2 (co-transfected in HEK293T cells) (UniProt P10415); test: anti-Flag co-immunoprecipitation from co-transfected HEK293T cells, anti-Bcl-2 blot

Measured: binding

GST-Beclin-1 fusion protein (wild type, bacterially purified, not phosphorylated) (from UniProt Q14457 1-450)
binds: [1] | [2]

Flag-Beclin-1 T119A (phospho-silencing mutant) (from UniProt Q14457 1-450)
binds: [3] | [4] | [5]

Flag-tagged Beclin-1 (wild type) (from UniProt Q14457 1-450)
binds: [6] | [7] | [8] | HA-tagged DAPk | [5] | [9]
